In patent US9872493B2, “Method for promoting plant growth” (SUMITOMO CHEMICAL COMPANY, LIMITED, priority 2012, dated 2018):
Some of these results come from one statement about several compounds together.

Columns and labels:
[1] = system: Corn (variety: Pioneer 120 31P41); experiment: Test for evaluating growth promotion under low-temperature stress by soil drench treatment of corn (Test Example 14); assay type: in vivo; settings: concentrations as in Table 6
[2] = system: Corn (Variety: Pioneer 31P41); experiment: Test for evaluating growth promotion under low-temperature stress by corn seed treatment (Test Example 8); assay type: in vivo; settings: 4 days at 2.5±1° C., then 4 days at 27° C.
[3] = corn seed treatment 0.5 g per 100 kg of corn seeds
[4] = corn seed treatment 5 g per 100 kg of corn seeds
[5] = corn seed treatment 50 g per 100 kg of corn seeds

Row | Structure (SMILES) | score of the health of the plant compared with the untreated control plot (in words) [1] | further results
1 | O=C(O)c1cccc2sc(C(F)(F)F)cc12 [Compound 1, 2-trifluoromethylbenzo[b]thiophene-4-carboxylic acid] | obviously larger | 
2 | COC(=O)c1cccc2sc(C(F)(F)F)cc12 [Compound 2, methyl 2-trifluoromethylbenzo[b]thiophene-4-carboxylate] | obviously larger | 
3 | O=C(O)c1ccc2sccc2c1 [Compound 4, benzo[b]thiophene-5-carboxylic acid] | obviously larger | 
4 | COC(=O)c1ccc2sccc2c1 [Compound 5, methyl benzo[b]thiophene-5-carboxylate] | obviously larger | 
5 | NC(=O)c1cccc2ccsc12 [Compound 7, benzo[b]thiophene-7-carboxamide] | obviously larger | 
6 | O=C(O)c1cccc2cc(C(F)(F)F)sc12 [Compound 9, 2-trifluoromethylbenzo[b]thiophene-7-carboxylic acid] | obviously larger | 
7 | COC(=O)c1cccc2cc(C(F)(F)F)sc12 [Compound 10, methyl 2-trifluoromethylbenzo[b]thiophene-7-carboxylate] | obviously larger | 
8 | COC(=O)c1csc2ccccc12 [Compound 12, methyl benzo[b]thiophene-3-carboxylate] | obviously larger | 
9 | O=C(O)c1csc2ccc(C(F)(F)F)cc12 [Compound 13, 5-trifluoromethylbenzo[b]thiophene-3-carboxylic acid] | obviously larger | 
10 | COC(=O)c1csc2ccc(C(F)(F)F)cc12 [Compound 14, methyl 5-trifluoromethylbenzo[b]thiophene-3-carboxylate] | obviously larger | 
11 | O=C(O)c1c(C(F)(F)F)sc2ccccc12 [Compound 15, 2-trifluoromethylbenzo[b]thiophene-3-carboxylic acid] | obviously larger | fresh weight of the overground portion, larger than in the untreated control plot [2, 3]: ≥ 5%; fresh weight of the overground portion, larger than in the untreated control plot [2, 4]: ≥ 5%; fresh weight of the overground portion, larger than in the untreated control plot [2, 5]: ≥ 5%
12 | COC(=O)c1c(C(F)(F)F)sc2ccccc12 [Compound 16, methyl 2-trifluoromethylbenzo[b]thiophene-3-carboxylate] | obviously larger | 
13 | COC(=O)c1c(C(F)(F)F)sc2c(C(=O)OC)cccc12 [Compound 18, dimethyl 2-trifluoromethylbenzo[b]thiophene-3,7-dicarboxylate] | obviously larger | fresh weight of the overground portion, larger than in the untreated control plot [2, 3]: ≥ 5%; fresh weight of the overground portion, larger than in the untreated control plot [2, 4]: ≥ 5%; fresh weight of the overground portion, larger than in the untreated control plot [2, 5]: ≥ 5%
14 | NC(=O)c1csc2cccc(C(F)(F)F)c12 [Compound 19] | obviously larger | 
15 | NC(=O)c1c(C(F)(F)F)sc2ccccc12 [Compound 23] | obviously larger | 
16 | O=C(O)c1csc2cc(C(F)(F)F)ccc12 [Compound 27] | obviously larger | 
17 | COC(=O)c1csc2cc(C(F)(F)F)ccc12 [Compound 28] | obviously larger | 
18 | O=C(O)c1csc2c(C(F)(F)F)cccc12 [Compound 34] | obviously larger | 
19 | COC(=O)c1csc2c(C(F)(F)F)cccc12 [Compound 35] | obviously larger | 
20 | CNC(=O)c1csc2c(C(F)(F)F)cccc12 [Compound 38] | obviously larger | 
